Data as given in paper PMC4872337.
Results are given in words; binding and its absence hold for the method and conditions named. In cells and extracts the contact can be indirect. Some binding calls cover weakened binding; strength is not graded here. Tags and fused reporters may be left off the sequences shown.

Target: T1, Myc-tagged Kaiso (UniProt Q86T24)
T1 sequence: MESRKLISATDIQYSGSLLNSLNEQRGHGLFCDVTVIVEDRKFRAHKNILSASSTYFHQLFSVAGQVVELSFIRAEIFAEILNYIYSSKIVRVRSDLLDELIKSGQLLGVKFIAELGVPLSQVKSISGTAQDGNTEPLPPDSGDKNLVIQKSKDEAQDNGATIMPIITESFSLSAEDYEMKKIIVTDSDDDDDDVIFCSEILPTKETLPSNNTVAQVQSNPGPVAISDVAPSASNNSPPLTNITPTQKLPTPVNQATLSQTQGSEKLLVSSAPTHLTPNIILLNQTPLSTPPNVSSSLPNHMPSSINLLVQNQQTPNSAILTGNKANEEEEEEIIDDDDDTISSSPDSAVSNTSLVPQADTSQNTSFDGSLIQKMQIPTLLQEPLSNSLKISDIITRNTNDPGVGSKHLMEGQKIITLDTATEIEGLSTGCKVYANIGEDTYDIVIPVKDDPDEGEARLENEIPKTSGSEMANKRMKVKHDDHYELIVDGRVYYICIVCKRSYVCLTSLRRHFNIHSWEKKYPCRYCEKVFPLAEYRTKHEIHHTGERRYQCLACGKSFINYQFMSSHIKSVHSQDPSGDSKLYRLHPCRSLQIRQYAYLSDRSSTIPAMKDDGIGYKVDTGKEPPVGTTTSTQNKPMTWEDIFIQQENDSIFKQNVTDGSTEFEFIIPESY
Assay: co-IP; 293T cells co-transfected with HA-tagged CTNND1 and Myc-tagged Kaiso; immunoprecipitation and subsequent immunoblot

B1: HA-tagged CTNND1 (protein, UniProt O60716 1-968)
chain: MDDSEVESTASILASVKEQEAQFEKLTRALEEERRHVSAQLERVRVSPQDANPLMANGTLTRRHQNGRFVGDADLERQKFSDLKLNGPQDHSHLLYSTIPRMQEPGQIVETYTEEDPEGAMSVVSVETSDDGTTRRTETTVKKVVKTVTTRTVQPVAMGPDGLPVDASSVSNNYIQTLGRDFRKNGNGGPGPYVGQAGTATLPRNFHYPPDGYSRHYEDGYPGGSDNYGSLSRVTRIEERYRPSMEGYRAPSRQDVYGPQPQVRVGGSSVDLHRFHPEPYGLEDDQRSMGYDDLDYGMMSDYGTARRTGTPSDPRRRLRSYEDMIGEEVPSDQYYWAPLAQHERGSLASLDSLRKGGPPPPNWRQPELPEVIAMLGFRLDAVKSNAAAYLQHLCYRNDKVKTDVRKLKGIPVLVGLLDHPKKEVHLGACGALKNISFGRDQDNKIAIKNCDGVPALVRLLRKARDMDLTEVITGTLWNLSSHDSIKMEIVDHALHALTDEVIIPHSGWEREPNEDCKPRHIEWESVLTNTAGCLRNVSSERSEARRKLRECDGLVDALIFIVQAEIGQKDSDSKLVENCVCLLRNLSYQVHREIPQAERYQEAAPNVANNTGPHAASCFGAKKGKDEWFSRGKKPIEDPANDTVDFPKRTSPARGYELLFQPEVVRIYISLLKESKTPAILEASAGAIQNLCAGRWTYGRYIRSALRQEKALSAIADLLTNEHERVVKAASGALRNLAVDARNKELIGKHAIPNLVKNLPGGQQNSSWNFSEDTVISILNTINEVIAENLEAAKKLRETQGIEKLVLINKSGNRSEKEVRAAALVLQTIWGYKELRKPLEKEGWKKSDFQVNLNNASRSQSSHSYDDSTLPLIDRNQKSDKKPDREEIQMSNMGSNTKSLDNNYSTPNERGDHNRTLDRSGDLGDMEPLKGTTPLMQDEGQESLEEELDVLVLDDEGGQVSYPSMQKI
**Q.** For B1, which binding is on record?
**A.** binds
